Values of other authors as cited in article PMC9538324 (Journal of medical virology, 2022).

Tested on: SARS-CoV-2
Settings: Vero E6 cells, RNA readout, depending upon the MOI used; cited from earlier work

In the case of `Cc1ccc(NC(=O)c2ccc(CN3CCN(C)CC3)cc2)cc1Nc1nccc(-c2cccnc2)n1` [Imatinib, imatinib], the EC50 is given as 3 to 10 µM.
